Data as given in PubChem BioAssay AID1508600 (Functional Genomics Laboratory (NCATS/FGL), 2020).
Hit rate of the full screen: of about 53,000 sequences, about 3,700 (7%) were called active.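 Rule for the calls: active = gene knockdowns whose robust z-score for IL-1 alpha signal is at least 2 or at most -2, so actives lie on both sides; inactive = the rest.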 Some of the results follow.

Assay: Components of the Cytosolic LPS Sensing Pathway: Gene Identification via Genome-wide siRNA Screen;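 note: robust z of the log signal after scaling to non-targeting control siRNA wells of the plate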
Details: RAW264.7 macrophages, IL-1a HTRF, actives lie on both sides, screened at 100 nM (by protocol), cells primed 5 h with Pam3CSK4 first
Outline: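 Supernatant IL-1a by HTRF from RAW264.7 cells primed with Pam3CSK4 (5 hours) and transfected with LipidA (24 hour) after 48h siRNA knockdown at 100 nM; cell viability checked with CellTiter-Glo.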

Row | Sequence | z-score
1 | GGCAGCUCCUUCACAUUUUTT against Net1 | inactive: 0.437
2 | GGACUUAUUGCUUCAGUCUTT against Resp18 | inactive: 0.894
3 | GGAUAAGACCAUCAGAUUATT against Wdr31 | inactive: 1.18
4 | GCUGGAAUACGUUGAUAUATT against Kcnab3 | active: 3.68
5 | GGAAAUAAACCCUUGAUAUTT against Rhof | inactive: 0.305
6 | GCUAGUUAAGAGGAGGCUGTT against Nob1 | inactive: -0.252
7 | GCCAGUGCAUGAAAGAUAUTT against Kansl1l | inactive: -0.772
8 | GGGUCACUACAUUUGACACTT against Sh3glb2 | inactive: 0.0474
9 | GGUCAAUGUGUUUAUGUGATT against Nxt2 | inactive: -0.775
10 | GGAUACGACACCAAGAAUATT against Fam102a | inactive: 0.0981
11 | CGACAUCGACAGUCUAUAATT against Aoc1 | inactive: -0.363
12 | GGUCUUUGAUCUACGAAUGTT against Rhobtb2 | inactive: 0.825
13 | GGAGUCGAGUGAUGGUUCATT against Rtl1 | inactive: -1.09
14 | CCAAAUAUUGCCUAGCUGCTT against Qtrt2 | inactive: 0.152
15 | GGAUGCAUGGCUCAGUUAUTT against Olfr143 | inactive: -0.0703
16 | CCUUCAGAGUUUCAGACAATT against Fancd2os | inactive: -0.185
17 | GGGUUAAAAACAAAGGACGTT against Adcyap1 | inactive: 0.12
18 | GCAGGAAUGCGGUAUAAACTT against Inpp5f | inactive: 0.707
19 | GCGAGUGACACAUCUUCUCTT against Klhl7 | inactive: 0.467
20 | GCAGUUAUCGUGAAGUCUGTT against Tfap4 | inactive: 0.217
21 | GCCUCUUUAGGCUCUCUUUTT against Hspb6 | inactive: 0.449
22 | GGAGAAGAGUCAAGAGCUCTT against Vxn | inactive: 0.103

Row | Sequence | z-score
23 | GGUGAAGAGACUGGAGAACTT against Cavin2 | inactive: -0.277
24 | GCAGAGACUCCAAAGCUCATT against Chd4 | active: -2
25 | GCAAUGUACUGGUAUAAUUTT against Slc25a40 | inactive: -0.486
26 | GCUGCACAAGUGAUAUCCGTT against Trim26 | inactive: 0.397
27 | GGCUUGUUUUGCCCAGAUGTT against Olfr398 | active: -2.94
28 | GGUGUCUCUGAAUGAUGGCTT against 1810009J06Rik | inactive: 0.499
29 | CCCACGUAAGAAAAAUAGCTT against Ccdc14 | inactive: -1.2
30 | CCAACGUGCUGAAUUAUUATT against Irx3os | inactive: -0.0713
31 | CGUAGUCCUGUAUCCUCUATT against Aip | inactive: 1.37
32 | GGAACUGAAGCUCCUACAATT against Inka2 | inactive: 1.67
33 | GCUAAAAUAUUAGGGAAGCTT against Timm29 | inactive: 0.429
34 | GGAUGAGUUUGACAAGCUGTT against Rhou | inactive: -0.735
35 | GGUAUUGGGUUCCAUUAUATT against Mcmdc2 | inactive: -0.197
36 | GCUCAAGUAAUAGAAACUUTT against Fam98a | inactive: -0.0485
37 | GGUCAAUGAGUUAGCAAUATT against Olfr1143 | inactive: 0.36
38 | GGGAUCUUUUACUCAUACUTT against Olfr862 | inactive: -1.95
39 | GGCAGAAAAGAGAUGUUCUTT against Mien1 | inactive: 0.893
40 | GCAGAUAAGAGUUCAAAUCTT against Oxa1l | inactive: -0.499
41 | GGAGAAGGAUGAAGACGGATT against Map1lc3a | inactive: 0.397
42 | GGAGGAGUCCCAUAACUCATT against Cby2 | inactive: 1.05
43 | GGCCCUAAUAGCAACAGGATT against Ubqln2 | inactive: -1.31
44 | GGAGACACUGAAUGUGACATT against Ttyh1 | active: -2.03

As entered above:
z-score, GCUCAAGUAAUAGAAACUUTT against Fam98a is entered as inactive: -0.0485
z-score, GGAACUGAAGCUCCUACAATT against Inka2 is entered as inactive: 1.67
z-score, GGCCCUAAUAGCAACAGGATT against Ubqln2 is entered as inactive: -1.31
z-score, GGAGAAGGAUGAAGACGGATT against Map1lc3a is entered as inactive: 0.397

Remaining list, next part.

Row | Sequence | z-score
45 | GGACAAUGUGAGUUUCCUGTT against 5330439B14Rik | inactive: -1.02
46 | GGGUCUCAAAGCAGUUUUUTT against Rhoj | active: 3.99
47 | GUAUGAUCUUUAAACUCCATT against Ppp1r13l | inactive: 0.113
48 | GGGCUUCACUUCCUUAGGATT against Cog3 | inactive: 0.0276
49 | CGUAAUUAAUCAACAGCCATT against St8sia2 | inactive: 0.189
50 | GCGUUGAAACCACUUUGUATT against Tmprss11c | inactive: 0.221
51 | GGCGUAUCAUUUUAUCGACTT against Phlda3 | inactive: 0.000603
52 | GGAACUCAUGUGAAGCUCCTT against Ssu72 | inactive: -0.544
53 | GGAUGAAAGCAAAGACAAGTT against Zscan21 | active: 2.63
54 | GGAGCAGAUGAGAUCCAAGTT against Cdc42se1 | inactive: -0.256
55 | GCAGAUAGAGAUGAAGCUGTT against Phactr3 | inactive: 0.648
56 | GGCUUAGAGCUUCCUCUAATT against Adprhl1 | inactive: 0.386
57 | GCAAAUCGAGGACAGAAUUTT against Trim66 | inactive: -0.498
58 | CGUGAAGAAAAACGGGUUUTT against Snrpn | inactive: -0.355
59 | GGAGGUUAUCAGAUAUGCATT against Edar | inactive: 0.682
60 | GCUUCAGGAUAUUGUAAAGTT against Olfr1459 | inactive: -1.28
61 | GGUCCUACAAAAAGAUGGATT against Mettl7b | inactive: -0.536
62 | GCUCAGAUGUAUGUAUUCATT against Olfr247 | inactive: -0.846
63 | GCUUGAAUGUUGAGUGGAGTT against Mup3 | inactive: -1.51
64 | GGGAAUCUUCCGUUUAAGUTT against Pcdhga10 | inactive: 1.25
65 | CGAGAUCUCCGUCGAGUAATT against Brf2 | inactive: 0.548
66 | GGUAUCCUGUAACUACUCUTT against D130020L05Rik | inactive: -0.912

3 records picked at random from those above, as already listed:
Row | Sequence | z-score
63 | GCUUGAAUGUUGAGUGGAGTT against Mup3 | inactive: -1.51
58 | CGUGAAGAAAAACGGGUUUTT against Snrpn | inactive: -0.355
48 | GGGCUUCACUUCCUUAGGATT against Cog3 | inactive: 0.0276

Later entries

Row | Sequence | z-score
67 | GGAUGAAGACGACUAUCCCTT against Lat | inactive: 1
68 | UGGACUUGCUUCUCACAUCTT against Olfr694 | active: -2.22
69 | GGAUUGUGCUAACCUGCUGTT against 1600014C10Rik | inactive: 0.208
70 | CGACAUGAGCAACGUAGUCTT against Ccdc57 | inactive: -0.628
71 | CGCCACAGACAUUCAGUUATT against Sec23ip | inactive: -0.93
72 | GUUCUAGGCCUCCUGAAGCTT against Dohh | inactive: -0.808
73 | GGCAUCAUCGCCAUCUUCATT against Prrt1 | inactive: -1.08
74 | GGUGCAAACAGACACCAGATT against Dct | inactive: -0.982
75 | GCGAACAGAAAAGACCAAUTT against Col4a5 | inactive: -0.346
76 | GGAGGAAGAAACAGACAUCTT against Nup37 | inactive: 0.32
77 | GGCCCUAGAAAUAAUCUGCTT against Anks4b | inactive: 0.0338
78 | GGACAAGAUGUUGAGUAUUTT against Plrg1 | active: -2.23
79 | UUAUGUGGCACAAAUAAAUTT against Olfr138 | inactive: -1.4
80 | GGAACACUGGUAACUGUAATT against Stradb | inactive: 0.324
81 | GGAGGAUCAGUGAGAUUAATT against Wbp4 | inactive: 0.572
82 | GGAUAGUCUCAGUAACUAUTT against Grin2a | inactive: -1.32
83 | GGAAGCCAUGACAUUCAAGTT against Zfp286 | inactive: -0.471
84 | GGUGAGCAAAGCCAAGAAGTT against Sgpl1 | inactive: -1.42
85 | GGUCAUGUGUGGUUACAUUTT against Depdc5 | inactive: -1.54
86 | GCCGAGCUUUUGUGAGUAUTT against Rhobtb2 | inactive: 0.247
87 | GGUACAAACGUAAGGCCUATT against Leng1 | inactive: -0.853
88 | GCCAACCUUCGUAAGACACTT against Dgkz | inactive: -0.347

Row | Sequence | z-score
89 | GGAUUGACAGUGGUCUAUATT against Copz1 | inactive: -0.294
90 | GGCAACCAUAGACGAUGAATT against Rerg | active: -2.38
91 | GGCAGCUGAAAGAAGAUCUTT against Dffa | active: 3.21
92 | GCUGUCGUCUCGUAAUAGUTT against Itprip | inactive: 1.63
93 | GGACUAUUGUCUCAUUUGATT against Olfr1189 | inactive: 1.04
94 | ACAUUGUAAUUCUCACCGUTT against Olfr1322 | inactive: 1.12
95 | GGAAUGUCUCCUGUCUGUGTT against Pttg1ip | inactive: 0.124
96 | GCGGGAACAAGUUGAUAGATT against Pspc1 | inactive: -1.35
97 | GGCUUUUAUCCCAACAGUGTT against Mbnl3 | inactive: -0.475
98 | GGUCACAUCGUCCUUACAGTT against Rps6ka4 | active: -2.05
99 | GGAACAGAUGUGGUUAUAATT against Iars2 | inactive: 1.14
100 | GGUGGACAUGUGGAAUGAUTT against Ubxn11 | inactive: 0.463
101 | GGAAGUGAGGAACUGUGUCTT against Prodh2 | inactive: -1.34
102 | GGAGAUUUUGAAUAGUAUCTT against Smc4 | inactive: 1.47
103 | GGGUAUACCUAUCAUAGUATT against Gnl3l | inactive: 0.0775
104 | GGAGGAAGCUCAUCUAUGATT against Rpl7 | inactive: 0.964
105 | CCUCGUUCCAAUCAAGCCUTT against Ftsj3 | inactive: 1.45
106 | GGAAGUAGGAUAUUUACACTT against Sypl2 | inactive: 1.8
107 | GGUGCCAUUGACAUUUAAUTT against Tut7 | inactive: -0.0865
